Laboratory results as given in publication PMC12005806.
These are yes or no findings as the source states them, for the method shown. Binding seen in cells or lysates may run through a third protein. Some entries that bind do so weakly or less than the wild type. For some of these results: Sequences can lack the tags named with a protein.

Sequences of proteins named here, by UniProt entry; tags and fusion partners are left off.
UniProt O94874: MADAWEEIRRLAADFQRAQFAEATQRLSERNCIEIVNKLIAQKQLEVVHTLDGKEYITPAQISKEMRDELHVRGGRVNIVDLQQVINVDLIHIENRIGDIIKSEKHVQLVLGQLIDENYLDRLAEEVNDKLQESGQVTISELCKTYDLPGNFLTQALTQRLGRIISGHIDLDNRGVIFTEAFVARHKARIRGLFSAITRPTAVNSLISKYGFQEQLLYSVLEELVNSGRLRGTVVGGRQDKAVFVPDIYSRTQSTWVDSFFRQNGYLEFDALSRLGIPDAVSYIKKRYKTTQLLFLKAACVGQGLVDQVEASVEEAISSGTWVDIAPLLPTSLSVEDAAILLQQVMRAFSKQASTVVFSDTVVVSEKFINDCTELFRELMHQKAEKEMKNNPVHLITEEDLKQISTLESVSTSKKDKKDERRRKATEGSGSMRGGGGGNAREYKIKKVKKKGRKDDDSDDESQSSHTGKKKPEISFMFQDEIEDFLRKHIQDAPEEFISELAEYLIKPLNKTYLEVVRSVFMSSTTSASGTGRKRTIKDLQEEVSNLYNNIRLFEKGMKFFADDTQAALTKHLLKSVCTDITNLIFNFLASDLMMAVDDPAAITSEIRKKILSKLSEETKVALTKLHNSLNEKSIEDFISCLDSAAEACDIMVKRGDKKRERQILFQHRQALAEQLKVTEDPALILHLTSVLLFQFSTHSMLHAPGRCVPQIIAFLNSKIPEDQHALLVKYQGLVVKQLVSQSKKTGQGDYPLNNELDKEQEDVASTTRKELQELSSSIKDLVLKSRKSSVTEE
UniProt Q8R4B8: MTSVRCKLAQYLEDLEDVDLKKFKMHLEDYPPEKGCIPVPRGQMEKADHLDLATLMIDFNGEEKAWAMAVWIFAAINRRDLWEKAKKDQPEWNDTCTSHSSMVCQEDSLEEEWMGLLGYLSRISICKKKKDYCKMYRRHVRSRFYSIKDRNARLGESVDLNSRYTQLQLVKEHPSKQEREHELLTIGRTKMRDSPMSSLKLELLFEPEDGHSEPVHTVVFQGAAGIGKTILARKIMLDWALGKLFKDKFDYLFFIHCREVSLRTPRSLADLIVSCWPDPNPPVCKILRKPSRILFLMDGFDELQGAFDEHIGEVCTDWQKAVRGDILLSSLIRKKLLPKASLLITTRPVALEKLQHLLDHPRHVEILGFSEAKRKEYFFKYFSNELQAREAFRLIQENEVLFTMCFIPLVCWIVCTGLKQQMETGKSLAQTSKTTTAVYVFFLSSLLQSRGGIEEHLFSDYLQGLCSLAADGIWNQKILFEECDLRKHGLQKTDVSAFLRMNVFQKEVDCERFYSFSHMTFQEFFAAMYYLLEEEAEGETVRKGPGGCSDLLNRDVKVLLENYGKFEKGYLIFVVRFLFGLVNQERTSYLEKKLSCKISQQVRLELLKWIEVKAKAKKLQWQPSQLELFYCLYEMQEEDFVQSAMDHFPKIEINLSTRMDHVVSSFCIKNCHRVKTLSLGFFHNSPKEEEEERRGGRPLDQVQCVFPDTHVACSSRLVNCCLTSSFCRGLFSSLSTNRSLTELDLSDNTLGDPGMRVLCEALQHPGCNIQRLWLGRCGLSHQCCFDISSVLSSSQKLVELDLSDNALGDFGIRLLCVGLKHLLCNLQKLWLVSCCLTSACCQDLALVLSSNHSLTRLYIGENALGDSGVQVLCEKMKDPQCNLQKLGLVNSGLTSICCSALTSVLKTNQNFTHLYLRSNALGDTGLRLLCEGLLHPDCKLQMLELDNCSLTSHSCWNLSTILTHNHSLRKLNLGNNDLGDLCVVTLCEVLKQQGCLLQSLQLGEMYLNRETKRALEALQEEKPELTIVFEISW
UniProt Q96P20: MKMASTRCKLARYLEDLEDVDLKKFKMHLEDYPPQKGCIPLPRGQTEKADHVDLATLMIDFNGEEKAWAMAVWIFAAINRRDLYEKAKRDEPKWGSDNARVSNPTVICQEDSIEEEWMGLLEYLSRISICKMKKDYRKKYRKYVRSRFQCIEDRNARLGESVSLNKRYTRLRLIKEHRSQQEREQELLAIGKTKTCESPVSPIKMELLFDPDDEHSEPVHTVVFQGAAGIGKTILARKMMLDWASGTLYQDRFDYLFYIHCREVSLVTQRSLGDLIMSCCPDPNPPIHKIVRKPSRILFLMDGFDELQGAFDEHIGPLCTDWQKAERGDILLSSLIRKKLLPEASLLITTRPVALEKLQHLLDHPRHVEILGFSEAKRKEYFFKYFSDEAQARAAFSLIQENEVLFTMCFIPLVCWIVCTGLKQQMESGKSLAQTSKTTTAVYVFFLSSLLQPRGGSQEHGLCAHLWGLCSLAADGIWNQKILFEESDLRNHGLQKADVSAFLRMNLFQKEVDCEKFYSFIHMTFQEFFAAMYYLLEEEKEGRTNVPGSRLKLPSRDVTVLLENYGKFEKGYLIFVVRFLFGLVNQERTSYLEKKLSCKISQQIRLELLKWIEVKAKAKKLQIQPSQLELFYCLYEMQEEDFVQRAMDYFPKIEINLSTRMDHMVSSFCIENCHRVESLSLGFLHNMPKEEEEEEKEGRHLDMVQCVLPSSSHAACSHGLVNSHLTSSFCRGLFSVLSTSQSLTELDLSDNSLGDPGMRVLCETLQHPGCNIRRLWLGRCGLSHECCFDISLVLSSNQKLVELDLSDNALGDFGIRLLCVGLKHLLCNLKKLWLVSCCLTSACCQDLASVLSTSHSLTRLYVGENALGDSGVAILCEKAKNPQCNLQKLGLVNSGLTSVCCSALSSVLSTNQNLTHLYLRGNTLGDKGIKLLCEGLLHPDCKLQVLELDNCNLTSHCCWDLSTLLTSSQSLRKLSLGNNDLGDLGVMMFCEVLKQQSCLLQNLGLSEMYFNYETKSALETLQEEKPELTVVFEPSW

What was measured:
GST-tagged Ufl1 = biological target: T1, GST-tagged Ufl1 (UniProt Q8CCJ3); assay: pull-down; GST or GST-tagged Ufl1 on Glutathione Sepharose beads incubated overnight at 4 °C with cell lysates (150 mM NaCl, 50 mM Tris-HCl pH 7.4, 1% Triton X-100, 1 mM EDTA); blot with anti-Flag or anti-NLRP3; only the target purified
T1 sequence: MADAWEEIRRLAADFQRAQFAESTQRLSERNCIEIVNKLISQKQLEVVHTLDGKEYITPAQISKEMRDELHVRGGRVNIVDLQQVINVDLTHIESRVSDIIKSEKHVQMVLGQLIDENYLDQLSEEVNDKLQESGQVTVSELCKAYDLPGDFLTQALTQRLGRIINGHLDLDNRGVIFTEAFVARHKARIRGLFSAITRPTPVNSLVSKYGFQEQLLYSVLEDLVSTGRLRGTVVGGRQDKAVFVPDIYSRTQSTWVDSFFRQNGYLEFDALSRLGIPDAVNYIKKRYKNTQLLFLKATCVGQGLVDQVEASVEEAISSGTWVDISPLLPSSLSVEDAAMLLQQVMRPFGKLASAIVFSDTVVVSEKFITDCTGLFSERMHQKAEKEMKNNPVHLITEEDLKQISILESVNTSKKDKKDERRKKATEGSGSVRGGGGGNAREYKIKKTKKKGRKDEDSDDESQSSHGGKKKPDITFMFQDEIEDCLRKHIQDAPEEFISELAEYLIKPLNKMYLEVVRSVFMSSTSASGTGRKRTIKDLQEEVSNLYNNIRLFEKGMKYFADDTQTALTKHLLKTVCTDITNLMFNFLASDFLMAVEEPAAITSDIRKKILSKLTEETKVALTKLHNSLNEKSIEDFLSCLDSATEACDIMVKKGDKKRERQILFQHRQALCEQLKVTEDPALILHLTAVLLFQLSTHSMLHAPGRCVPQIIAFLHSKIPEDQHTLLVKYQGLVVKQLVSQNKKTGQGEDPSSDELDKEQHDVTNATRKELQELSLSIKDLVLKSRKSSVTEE

[1] = biological target: Ufl1 (endogenous, THP-1-derived macrophages) (human (endogenous in THP-1)) (UniProt O94874); assay: co-IP; endogenous proteins in THP-1-derived macrophages, resting, LPS-stimulated (1 µg/mL, 3 h) or LPS-primed and ATP-activated (2 mM, 30 min); 0.3% NP-40 lysis buffer; IP with Ufl1 antibody overnight at 4 °C
V5-tagged Ufl1 = biological target: T2, V5-tagged Ufl1 (UniProt Q8CCJ3); assay: co-IP; HEK293T cells co-transfected with Flag-tagged NLRP3 and V5-tagged Ufl1; 0.3% NP-40 lysis buffer; IP with Flag beads or with V5 antibody
T2 sequence: T1 sequence

Substance	binding (GST-tagged Ufl1)	binding [1]	binding (V5-tagged Ufl1)
NLRP3 (endogenous, LPS-stimulated mouse peritoneal macrophages) (from UniProt Q8R4B8 1-1033)	binds		
NLRP3 (endogenous, THP-1-derived macrophages) (from UniProt Q96P20 1-1036)		binds	
Flag-tagged NLRP3 (from UniProt Q8R4B8 1-1033)	binds		binds
